In assay [1] the target is Capicua (CIC) (mouse (endogenous in P1 and P0.5 brain)) (UniProt Q924A2). Put plainly: co-IP.
The target in assay [2] is BRG1 (SMARCA4) (mouse (endogenous in P1 and P0.5 brain)) (UniProt Q3TKT4). Put plainly: co-IP.

Chains of the proteins cited; added tags and fusions are not shown.
UniProt Q924A2: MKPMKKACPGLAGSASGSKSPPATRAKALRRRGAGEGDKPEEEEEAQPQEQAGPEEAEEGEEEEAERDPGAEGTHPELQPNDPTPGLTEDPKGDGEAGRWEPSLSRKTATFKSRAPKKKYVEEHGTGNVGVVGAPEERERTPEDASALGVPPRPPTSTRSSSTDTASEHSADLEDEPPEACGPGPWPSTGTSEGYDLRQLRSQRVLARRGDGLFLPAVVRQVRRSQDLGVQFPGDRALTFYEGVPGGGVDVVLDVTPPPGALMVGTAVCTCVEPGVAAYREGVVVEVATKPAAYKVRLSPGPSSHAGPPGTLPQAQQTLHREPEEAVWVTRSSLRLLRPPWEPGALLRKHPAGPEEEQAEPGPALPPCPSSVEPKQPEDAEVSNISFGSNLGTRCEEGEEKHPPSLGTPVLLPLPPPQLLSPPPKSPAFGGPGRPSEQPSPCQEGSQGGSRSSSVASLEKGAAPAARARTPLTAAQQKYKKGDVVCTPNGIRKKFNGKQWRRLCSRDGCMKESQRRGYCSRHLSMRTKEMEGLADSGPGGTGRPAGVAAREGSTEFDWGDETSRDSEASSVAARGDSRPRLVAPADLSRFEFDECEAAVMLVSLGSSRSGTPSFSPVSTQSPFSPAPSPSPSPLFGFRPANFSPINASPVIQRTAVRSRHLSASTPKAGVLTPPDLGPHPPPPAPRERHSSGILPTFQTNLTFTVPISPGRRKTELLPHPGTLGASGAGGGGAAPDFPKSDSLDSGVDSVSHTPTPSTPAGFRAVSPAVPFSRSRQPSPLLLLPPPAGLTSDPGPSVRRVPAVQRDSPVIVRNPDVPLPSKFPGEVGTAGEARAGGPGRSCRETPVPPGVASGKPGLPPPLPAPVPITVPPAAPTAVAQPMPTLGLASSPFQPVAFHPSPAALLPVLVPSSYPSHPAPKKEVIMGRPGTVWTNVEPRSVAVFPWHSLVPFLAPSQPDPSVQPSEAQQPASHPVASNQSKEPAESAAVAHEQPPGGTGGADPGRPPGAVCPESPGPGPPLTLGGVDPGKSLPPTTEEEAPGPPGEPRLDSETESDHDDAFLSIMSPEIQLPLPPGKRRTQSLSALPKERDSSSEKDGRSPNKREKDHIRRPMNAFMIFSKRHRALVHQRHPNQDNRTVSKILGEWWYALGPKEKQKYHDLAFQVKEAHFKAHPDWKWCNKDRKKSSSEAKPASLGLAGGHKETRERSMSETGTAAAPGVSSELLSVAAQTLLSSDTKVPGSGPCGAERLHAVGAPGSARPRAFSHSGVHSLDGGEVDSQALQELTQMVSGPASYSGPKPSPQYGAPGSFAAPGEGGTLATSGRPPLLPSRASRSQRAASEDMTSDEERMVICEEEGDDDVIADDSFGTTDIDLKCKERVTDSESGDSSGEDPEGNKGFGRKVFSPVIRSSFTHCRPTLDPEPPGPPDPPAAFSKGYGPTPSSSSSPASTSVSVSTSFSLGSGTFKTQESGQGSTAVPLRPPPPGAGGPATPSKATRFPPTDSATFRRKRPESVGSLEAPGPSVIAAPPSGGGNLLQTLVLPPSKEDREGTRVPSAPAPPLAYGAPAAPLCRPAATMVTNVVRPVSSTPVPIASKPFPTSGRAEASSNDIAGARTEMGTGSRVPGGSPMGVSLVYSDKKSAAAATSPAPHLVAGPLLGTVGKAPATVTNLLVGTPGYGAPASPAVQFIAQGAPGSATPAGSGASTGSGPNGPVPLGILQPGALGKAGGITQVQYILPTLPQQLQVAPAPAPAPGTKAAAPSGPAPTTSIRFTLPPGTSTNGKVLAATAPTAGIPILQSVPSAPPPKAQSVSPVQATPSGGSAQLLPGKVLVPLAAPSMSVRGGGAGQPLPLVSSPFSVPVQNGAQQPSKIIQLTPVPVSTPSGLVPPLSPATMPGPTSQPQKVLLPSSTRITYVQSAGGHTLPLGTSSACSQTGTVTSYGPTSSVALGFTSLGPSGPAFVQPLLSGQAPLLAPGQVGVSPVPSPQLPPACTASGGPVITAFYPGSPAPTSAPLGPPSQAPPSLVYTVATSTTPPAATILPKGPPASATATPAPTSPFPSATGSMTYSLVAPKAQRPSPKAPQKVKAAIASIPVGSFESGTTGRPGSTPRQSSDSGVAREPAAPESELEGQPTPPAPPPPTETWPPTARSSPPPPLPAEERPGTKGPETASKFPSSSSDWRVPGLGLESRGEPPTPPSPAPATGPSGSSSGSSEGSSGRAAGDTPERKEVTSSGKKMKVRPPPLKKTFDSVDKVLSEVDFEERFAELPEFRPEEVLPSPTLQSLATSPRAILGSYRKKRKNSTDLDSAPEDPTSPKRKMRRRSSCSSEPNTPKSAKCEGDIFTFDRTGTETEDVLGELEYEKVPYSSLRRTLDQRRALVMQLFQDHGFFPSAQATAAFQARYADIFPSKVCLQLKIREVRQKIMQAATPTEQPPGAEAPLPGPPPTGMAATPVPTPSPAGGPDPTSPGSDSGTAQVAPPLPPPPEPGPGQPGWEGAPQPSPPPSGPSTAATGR
UniProt Q3TKT4: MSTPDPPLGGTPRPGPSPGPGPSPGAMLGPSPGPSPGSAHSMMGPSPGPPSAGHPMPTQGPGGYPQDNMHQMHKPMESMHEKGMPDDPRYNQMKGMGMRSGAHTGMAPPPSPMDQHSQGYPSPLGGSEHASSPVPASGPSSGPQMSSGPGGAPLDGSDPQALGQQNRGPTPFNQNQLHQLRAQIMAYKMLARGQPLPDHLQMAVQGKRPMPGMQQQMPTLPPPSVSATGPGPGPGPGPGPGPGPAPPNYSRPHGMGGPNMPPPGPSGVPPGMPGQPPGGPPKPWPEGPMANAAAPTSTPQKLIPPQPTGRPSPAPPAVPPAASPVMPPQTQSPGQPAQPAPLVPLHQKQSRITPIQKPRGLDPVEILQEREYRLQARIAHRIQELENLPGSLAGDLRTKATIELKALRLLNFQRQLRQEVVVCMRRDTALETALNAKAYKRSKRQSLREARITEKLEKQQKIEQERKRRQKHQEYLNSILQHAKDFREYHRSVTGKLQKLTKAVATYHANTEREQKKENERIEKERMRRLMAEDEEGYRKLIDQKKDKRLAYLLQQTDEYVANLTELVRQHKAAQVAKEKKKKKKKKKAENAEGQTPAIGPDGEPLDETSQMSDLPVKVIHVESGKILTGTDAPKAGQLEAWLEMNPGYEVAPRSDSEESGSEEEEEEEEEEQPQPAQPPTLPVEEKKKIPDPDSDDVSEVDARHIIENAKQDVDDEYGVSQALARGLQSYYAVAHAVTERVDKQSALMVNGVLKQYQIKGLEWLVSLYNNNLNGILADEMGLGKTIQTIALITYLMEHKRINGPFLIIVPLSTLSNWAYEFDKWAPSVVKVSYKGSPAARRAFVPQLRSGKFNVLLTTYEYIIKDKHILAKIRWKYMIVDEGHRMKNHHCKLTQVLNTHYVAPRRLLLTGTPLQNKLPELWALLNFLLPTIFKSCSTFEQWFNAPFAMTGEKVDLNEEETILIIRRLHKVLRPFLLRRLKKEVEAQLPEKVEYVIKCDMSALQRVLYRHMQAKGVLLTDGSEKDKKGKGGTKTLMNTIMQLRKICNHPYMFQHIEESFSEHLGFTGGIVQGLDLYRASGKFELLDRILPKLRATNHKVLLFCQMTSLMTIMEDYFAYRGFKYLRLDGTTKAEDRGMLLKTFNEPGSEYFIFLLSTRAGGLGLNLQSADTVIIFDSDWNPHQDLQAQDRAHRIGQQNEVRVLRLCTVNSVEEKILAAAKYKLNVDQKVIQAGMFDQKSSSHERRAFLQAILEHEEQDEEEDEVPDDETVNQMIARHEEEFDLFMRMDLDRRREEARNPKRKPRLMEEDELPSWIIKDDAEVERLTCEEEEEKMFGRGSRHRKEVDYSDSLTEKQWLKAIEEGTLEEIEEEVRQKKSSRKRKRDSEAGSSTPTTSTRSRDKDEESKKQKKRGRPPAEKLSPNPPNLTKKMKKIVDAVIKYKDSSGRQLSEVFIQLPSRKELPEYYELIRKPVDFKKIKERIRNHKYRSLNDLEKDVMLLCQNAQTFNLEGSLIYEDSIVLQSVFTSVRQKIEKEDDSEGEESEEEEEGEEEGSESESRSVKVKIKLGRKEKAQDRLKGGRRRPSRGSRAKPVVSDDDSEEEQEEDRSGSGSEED
UniProt Q8K4L3: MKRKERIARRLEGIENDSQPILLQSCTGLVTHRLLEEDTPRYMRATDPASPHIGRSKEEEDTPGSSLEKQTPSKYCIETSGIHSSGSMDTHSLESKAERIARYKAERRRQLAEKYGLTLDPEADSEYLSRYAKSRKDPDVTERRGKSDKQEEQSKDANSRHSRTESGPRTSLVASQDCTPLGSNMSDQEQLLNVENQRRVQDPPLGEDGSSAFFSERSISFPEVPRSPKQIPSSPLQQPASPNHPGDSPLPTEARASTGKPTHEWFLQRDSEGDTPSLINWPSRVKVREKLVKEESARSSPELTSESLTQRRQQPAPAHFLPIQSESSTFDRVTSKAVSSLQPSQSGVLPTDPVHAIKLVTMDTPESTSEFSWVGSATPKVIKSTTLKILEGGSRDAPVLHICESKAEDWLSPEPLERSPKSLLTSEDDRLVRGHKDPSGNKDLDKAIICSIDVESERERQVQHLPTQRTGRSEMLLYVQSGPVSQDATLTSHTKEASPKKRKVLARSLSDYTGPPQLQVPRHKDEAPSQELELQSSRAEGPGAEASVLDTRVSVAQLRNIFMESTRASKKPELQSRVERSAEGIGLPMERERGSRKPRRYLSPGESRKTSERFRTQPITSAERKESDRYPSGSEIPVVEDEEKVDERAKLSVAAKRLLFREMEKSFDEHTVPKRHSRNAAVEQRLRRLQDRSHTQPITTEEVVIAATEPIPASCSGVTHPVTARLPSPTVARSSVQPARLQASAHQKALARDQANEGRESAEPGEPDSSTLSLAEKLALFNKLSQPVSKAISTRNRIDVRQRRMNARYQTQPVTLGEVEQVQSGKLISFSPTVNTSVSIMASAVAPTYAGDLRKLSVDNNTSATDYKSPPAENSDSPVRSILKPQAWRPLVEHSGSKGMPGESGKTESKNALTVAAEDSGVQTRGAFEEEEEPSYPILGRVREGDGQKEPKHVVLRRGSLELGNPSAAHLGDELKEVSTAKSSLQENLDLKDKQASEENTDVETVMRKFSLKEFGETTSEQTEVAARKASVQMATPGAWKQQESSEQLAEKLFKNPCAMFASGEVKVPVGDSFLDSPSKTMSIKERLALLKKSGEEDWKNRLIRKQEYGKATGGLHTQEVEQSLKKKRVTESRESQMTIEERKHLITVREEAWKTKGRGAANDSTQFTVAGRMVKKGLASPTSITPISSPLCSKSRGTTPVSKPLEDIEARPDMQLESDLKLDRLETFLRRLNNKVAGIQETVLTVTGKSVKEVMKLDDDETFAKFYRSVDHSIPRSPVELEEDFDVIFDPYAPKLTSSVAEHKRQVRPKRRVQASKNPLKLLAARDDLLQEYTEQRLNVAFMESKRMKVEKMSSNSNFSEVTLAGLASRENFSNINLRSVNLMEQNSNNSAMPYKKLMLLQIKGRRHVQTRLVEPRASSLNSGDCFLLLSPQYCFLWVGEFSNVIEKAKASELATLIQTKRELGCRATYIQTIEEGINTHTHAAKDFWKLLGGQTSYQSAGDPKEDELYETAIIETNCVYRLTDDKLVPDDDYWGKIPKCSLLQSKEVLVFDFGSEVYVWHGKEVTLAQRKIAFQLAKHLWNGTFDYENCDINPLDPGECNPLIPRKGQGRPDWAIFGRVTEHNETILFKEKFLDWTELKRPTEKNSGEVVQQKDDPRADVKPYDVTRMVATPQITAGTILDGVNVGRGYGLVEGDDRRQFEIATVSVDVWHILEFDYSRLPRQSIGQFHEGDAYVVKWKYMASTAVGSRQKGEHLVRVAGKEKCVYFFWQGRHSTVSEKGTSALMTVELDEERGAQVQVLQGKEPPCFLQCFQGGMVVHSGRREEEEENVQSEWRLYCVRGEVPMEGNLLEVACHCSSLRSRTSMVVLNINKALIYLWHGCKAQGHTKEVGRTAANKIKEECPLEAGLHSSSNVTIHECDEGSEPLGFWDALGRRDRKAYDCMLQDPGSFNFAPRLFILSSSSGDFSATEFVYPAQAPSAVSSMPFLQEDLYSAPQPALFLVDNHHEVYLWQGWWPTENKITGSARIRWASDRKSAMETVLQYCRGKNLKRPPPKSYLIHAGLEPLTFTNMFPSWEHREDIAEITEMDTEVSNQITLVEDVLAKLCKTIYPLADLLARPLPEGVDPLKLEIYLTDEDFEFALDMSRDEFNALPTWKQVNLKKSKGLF

No constants are given. Whether binding was seen depends on the method and setting. Binding seen in cells or lysates may run through a third protein. Some results given as binding are weak or reduced against the parent protein; the word gives no strength.

For “SVIL, an actin-binding protein encoded by supervillin gene (from UniProt Q8K4L3 1-2170)”, the binding result in assay [1] and in assay [2] was “binds” throughout.

The values are drawn from article doi:10.1101/799536.
